Assay [1] concerns GM and TA muscles.
In assay [2] the test system is cardiac muscle.
Assay [3] deals with aged animal model. Description: Grip strength test in aged mice. Particulars: 35 mg/kg orally once/day; grip strength of forepaws and hind paws corrected for body weight.
Assay [4] has as its system C57BL/10ScSn-Dmdmdx (mdx) mice. Kind of assay: Hanging test in mdx (DMD) mouse model. Particulars: treatment protocol, 35 mg/kg, test at week 15; vs water-treated mdx.
Assay [5] relates to aged animal model. Description: Four limb-wire hanging test in aged mice. As to conditions: 35 mg/kg orally once/day; longest hanging time of two measurements.
For assay [6], the system named is gastrocnemius (GM), tibialis anterior (TA) and cardiac muscle tissues. Description: Measurement of muscle weight in aged mice. Particulars: 35 mg/kg orally once/day; tissues isolated after euthanasia.
Assay [7] has as its system C57BL/10ScSn-Dmdmdx (mdx) mice. Description: Grip strength test in mdx (DMD) mouse model. As to conditions: vs water-treated mdx.
The test system of assay [8] is citrate synthase. Kind of assay: Citrate synthase activity in TA muscle of aged mice. As to conditions: 35 mg/kg orally once/day; corrected for total protein concentration.
Assay [9] concerns aged animal model. Kind of assay: Survival rate of aged mice during the experimental period. Particulars: 18-month-old mice, 35 mg/kg orally once/day for 4 months.
The test system of assay [10] is GM tissues. Kind of assay: Muscle fiber cross-sectional area, H&E staining of GM tissue. Particulars: 35 mg/kg orally once/day.
Assay [11] has as its system aged animal model. Description: Evaluation of sensorimotor function (Rota-rod test) in aged mice. As to conditions: 35 mg/kg orally once/day; Rota-rod 4 to 40 rpm; statistical significance on day 3.
Assay [12] concerns extensor digitorum longus (EDL) and soleus muscles. Description: Ex vivo muscle force production of muscles isolated from CHP-treated mdx mice. Particulars: prevention protocol, CHP for 17 weeks.
The test system of assay [13] is flexor digitorum brevis (FDB) muscles. Kind of assay: SR Ca^2+ release/uptake (Fluo-4/AM) in FDB fibers isolated from CHP-treated mdx mice. Particulars: prevention protocol; 2.5 mM caffeine stimulation.
Setting [14] is: GM and TA muscles, corrected by β-actin.
Where [15] appears, read: compared to the vehicle-treated control group.

Structures were worked out from names or drawings and are uncertain.

This is an account of results in patent EP4825388A1, “USE OF CYCLO(HIS-PRO) (CHP) FOR ENHANCING EXERCISE PERFORMANCE, IMPROVING MUSCLE FUNCTION, OR PREVENTING, ALLEVIATING, OR TREATING MUSCLE DISEASES” (dated 2026).

As to `O=C1N[C@@H](Cc2c[nH]cn2)C(=O)N2CCC[C@@H]12`, in assay [1] (setting [14]), the “expressions of genes related to mitochondrial biogenesis and function (Err-α, Cox-4, Drp-1, Tf1bm and Tf2bm)” value was “significantly increased”; the sirt-1 expression entry is “increase equally in GM and TA muscles”. The “expression of genes related to aging and muscle atrophy” value in [1] (compared to the control group, corrected by β-actin) is “maintained to be lower”. Moreover, in [1] (setting [15]), the “gene expression levels of Myostatin, Atrogin-1, Foxo-1 and Dystrophin in skeletal muscle” value is recorded as “significant decrease”; the “gene expression levels of PGC-1α, Nrf-2, Sirt-1, Sirt-3, Drp-1, Err-α, Cox-4, Tf1bm and Tf2bm in skeletal muscle” value was “significantly increased”. The “expression of the nrf-2 gene” value in assay [1] (corrected by β-actin) is recorded as “high”. Moreover, the “expressions of atrogin-1 and murf-1 genes” value in assay [2] was “significantly reduced”. Also, in assay [3], the “maximum muscle strength, increase compared to the control group” value is given as “about 23.6%”. The average hanging time result in assay [4] was “significantly increased”. Besides, in assay [5], the “hanging time, increase compared to the control group” value is listed as “about 1.9 times”. For the same molecule, in assay [6], the “weight of the TA muscle” value is reported as “significantly increased”. Also, the grip strength entry in assay [7] (prevention protocol, 20 mg/kg oral gavage three times a week from 3 weeks of age, test at week 10) is given as “significant increase”. The grip strength entry in assay [7] (treatment protocol, 35 mg/kg oral gavage three times a week from 7 weeks of age, test at week 16) was “significant increase”. In addition, the “citrate synthase activity of TA muscle, increase compared to the control group” value in assay [8] is “about 12%”. This molecule also returned a survival rate in assay [9] of 100%. In assay [10], the “average cross-sectional area of muscle fibers, increase compared to the control group” value is on record as “about 22%” and the “distribution of muscle fibers over a wide area” value was “increased”. In addition, the sensorimotor function entry in assay [11] is recorded as “improved sensorimotor function compared to the control group”. Also, the maximal contractile force entry in assay [12] (EDL and soleus muscles) was “partial recovery”. Moreover, the “performance of EDL and soleus muscles” value in assay [12] (concentric contractions, force-frequency relationship) is recorded as “improved”. In assay [13], the “Ca^2+ uptake via store-operated calcium channels (SOCs) after SR depletion” value was “normalized” and the “response to caffeine-induced Ca^2+ release in the SR” value is on record as “restored”.
